This is an account of results in PMC11272581.

Chains of the proteins cited; added tags and fusions are not shown.
UniProt Q92922: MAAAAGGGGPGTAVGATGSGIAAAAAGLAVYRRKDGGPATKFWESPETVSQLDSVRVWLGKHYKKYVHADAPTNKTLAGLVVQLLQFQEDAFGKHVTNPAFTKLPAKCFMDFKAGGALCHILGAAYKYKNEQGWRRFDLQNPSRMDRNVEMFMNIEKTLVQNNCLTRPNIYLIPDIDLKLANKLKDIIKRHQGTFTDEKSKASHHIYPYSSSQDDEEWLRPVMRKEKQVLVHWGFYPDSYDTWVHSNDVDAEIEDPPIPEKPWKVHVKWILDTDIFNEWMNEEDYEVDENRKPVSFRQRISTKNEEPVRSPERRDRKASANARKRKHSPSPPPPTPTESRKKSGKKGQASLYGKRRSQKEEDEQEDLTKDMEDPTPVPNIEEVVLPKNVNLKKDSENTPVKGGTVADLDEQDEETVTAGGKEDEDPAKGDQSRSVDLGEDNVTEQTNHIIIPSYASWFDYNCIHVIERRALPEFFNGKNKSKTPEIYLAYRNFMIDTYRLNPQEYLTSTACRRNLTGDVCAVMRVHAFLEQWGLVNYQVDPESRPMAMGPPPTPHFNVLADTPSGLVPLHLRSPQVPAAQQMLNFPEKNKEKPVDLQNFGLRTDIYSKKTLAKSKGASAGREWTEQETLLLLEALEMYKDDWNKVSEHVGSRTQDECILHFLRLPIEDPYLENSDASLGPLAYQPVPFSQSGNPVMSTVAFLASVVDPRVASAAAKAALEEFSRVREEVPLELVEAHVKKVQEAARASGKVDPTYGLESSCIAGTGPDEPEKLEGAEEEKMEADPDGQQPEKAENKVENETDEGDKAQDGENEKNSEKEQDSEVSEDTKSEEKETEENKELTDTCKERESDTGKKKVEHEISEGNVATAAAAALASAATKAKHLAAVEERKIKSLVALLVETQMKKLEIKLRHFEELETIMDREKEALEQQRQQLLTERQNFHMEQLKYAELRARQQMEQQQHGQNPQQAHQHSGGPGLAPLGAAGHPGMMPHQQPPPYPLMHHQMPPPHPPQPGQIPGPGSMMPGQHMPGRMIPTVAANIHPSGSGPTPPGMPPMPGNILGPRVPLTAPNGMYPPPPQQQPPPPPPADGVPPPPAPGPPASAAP
UniProt O95373: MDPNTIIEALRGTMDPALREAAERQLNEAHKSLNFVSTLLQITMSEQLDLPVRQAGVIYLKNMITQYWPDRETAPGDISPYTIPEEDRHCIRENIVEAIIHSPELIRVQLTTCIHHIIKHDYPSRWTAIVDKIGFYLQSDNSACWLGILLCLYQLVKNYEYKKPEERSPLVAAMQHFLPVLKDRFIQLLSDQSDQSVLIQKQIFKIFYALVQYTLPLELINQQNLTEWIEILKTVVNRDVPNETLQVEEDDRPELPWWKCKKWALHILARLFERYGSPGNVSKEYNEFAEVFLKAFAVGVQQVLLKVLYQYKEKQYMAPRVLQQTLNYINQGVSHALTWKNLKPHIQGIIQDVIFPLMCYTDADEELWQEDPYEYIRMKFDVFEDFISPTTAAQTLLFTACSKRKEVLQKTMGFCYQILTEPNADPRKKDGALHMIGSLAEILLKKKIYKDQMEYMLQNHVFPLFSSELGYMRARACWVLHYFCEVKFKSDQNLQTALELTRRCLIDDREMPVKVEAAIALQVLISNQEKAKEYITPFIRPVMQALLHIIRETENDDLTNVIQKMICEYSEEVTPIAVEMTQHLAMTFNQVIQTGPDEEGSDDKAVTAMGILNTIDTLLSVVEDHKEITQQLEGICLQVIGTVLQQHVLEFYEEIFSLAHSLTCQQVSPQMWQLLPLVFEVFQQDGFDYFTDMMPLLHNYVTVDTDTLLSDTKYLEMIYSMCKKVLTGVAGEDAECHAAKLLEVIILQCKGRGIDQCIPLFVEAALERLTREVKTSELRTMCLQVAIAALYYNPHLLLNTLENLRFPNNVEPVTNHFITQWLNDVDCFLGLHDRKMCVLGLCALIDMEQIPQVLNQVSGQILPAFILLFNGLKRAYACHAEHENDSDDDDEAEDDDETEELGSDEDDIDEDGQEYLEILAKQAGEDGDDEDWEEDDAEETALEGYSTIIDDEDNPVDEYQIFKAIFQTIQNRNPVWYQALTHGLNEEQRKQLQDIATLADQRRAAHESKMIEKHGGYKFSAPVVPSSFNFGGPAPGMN
UniProt Q12824: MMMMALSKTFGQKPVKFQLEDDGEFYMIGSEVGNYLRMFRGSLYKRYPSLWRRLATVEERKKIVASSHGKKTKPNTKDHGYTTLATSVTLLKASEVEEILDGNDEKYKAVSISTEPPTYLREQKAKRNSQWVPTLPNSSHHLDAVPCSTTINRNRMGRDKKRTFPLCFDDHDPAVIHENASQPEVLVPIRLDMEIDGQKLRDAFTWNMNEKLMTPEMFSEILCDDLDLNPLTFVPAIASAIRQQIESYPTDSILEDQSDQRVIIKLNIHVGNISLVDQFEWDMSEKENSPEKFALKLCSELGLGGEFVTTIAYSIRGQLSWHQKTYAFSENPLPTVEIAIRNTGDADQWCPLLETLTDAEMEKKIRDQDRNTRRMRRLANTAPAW
UniProt P04424: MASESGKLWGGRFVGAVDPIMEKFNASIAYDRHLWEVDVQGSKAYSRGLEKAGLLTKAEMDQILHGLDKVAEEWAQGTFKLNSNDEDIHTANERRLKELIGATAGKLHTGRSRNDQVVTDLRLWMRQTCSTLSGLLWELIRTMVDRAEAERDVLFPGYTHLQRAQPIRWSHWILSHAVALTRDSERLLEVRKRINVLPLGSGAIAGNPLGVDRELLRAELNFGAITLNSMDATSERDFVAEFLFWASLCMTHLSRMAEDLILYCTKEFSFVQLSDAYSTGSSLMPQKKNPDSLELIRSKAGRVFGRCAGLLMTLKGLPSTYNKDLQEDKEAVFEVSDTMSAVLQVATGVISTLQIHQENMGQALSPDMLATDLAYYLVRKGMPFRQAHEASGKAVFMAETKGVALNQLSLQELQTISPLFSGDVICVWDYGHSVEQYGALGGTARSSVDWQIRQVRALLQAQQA

These are yes or no findings as the source states them, for the method shown. Binding seen in cells or lysates may run through a third protein. Some entries that bind do so weakly or less than the wild type.

Assay [1] concerns the target SWI/SNF-related, matrix-associated, actin-dependent regulator of chromatin subfamily C member 1 (SMARCC1) (human (endogenous in HCT116)) (UniProt Q92922). Briefly: co-IP; immunoprecipitation with anti-SMARCC1 or anti-SNF5 of the chromatin-bound fraction (MNase-released) of control and Dox-treated HCT116 ASS1-EV and ASS1-KO cells, immunoblotted for SNF5 or SMARCC1. Background: Immunoblotting shows a protein as a band on a membrane.

Assay [2] addresses T1, argininosuccinate synthase (ASS1) (human (endogenous in HCT116)) (UniProt P00966).
T1 sequence: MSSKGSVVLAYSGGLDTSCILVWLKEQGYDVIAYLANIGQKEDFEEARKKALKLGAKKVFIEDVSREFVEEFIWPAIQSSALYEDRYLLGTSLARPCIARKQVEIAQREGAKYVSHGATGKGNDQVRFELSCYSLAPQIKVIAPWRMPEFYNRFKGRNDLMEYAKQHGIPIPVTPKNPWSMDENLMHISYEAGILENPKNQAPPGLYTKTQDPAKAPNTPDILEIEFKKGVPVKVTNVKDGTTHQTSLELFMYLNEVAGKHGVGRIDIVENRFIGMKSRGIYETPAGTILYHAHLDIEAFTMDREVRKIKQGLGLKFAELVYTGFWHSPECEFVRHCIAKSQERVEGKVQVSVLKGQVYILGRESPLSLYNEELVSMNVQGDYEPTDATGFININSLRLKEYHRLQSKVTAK
Nature of the assay: proximity ligation; Duolink in situ PLA on fixed, permeabilised HCT116 cells (WT, ASS1-EV, ASS1-KO), control and Dox-treated; puncta counted in whole cells and nuclei.

Assay [3] addresses SWI/SNF-related, matrix-associated, actin-dependent regulator of chromatin subfamily C member 1 (SMARCC1) (human (endogenous in HCT116)) (UniProt Q92922). The assay is described as above.
For assay [4], the target named is importin 7 (IPO7) (human (endogenous in HCT116)) (UniProt O95373). Nature of the assay: co-IP; immunoprecipitation of IPO7 from the nuclear fraction of control and Dox-treated HCT116 WT cells, immunoblotted; Dynabeads Protein G.
Assay [5] shares this target. Briefly: proximity ligation; Duolink in situ PLA on fixed, permeabilised HCT116 cells (WT, ASS1-EV, ASS1-KO), control and Dox-treated; puncta counted in whole cells and nuclei.
In assay [6] the target is SWI/SNF-related, matrix-associated, actin-dependent regulator of chromatin subfamily C member 1 (SMARCC1) (human (endogenous in HCT116)) (UniProt Q92922). The assay is described as above. The source holds these as a separate data set.

For “SWI/SNF-related, matrix-associated, actin-dependent regulator of chromatin, subfamily B, member 5 (SNF5) (from UniProt Q12824 1-385)”, the binding entry in assay [1] is “binds”.
As to “argininosuccinate lyase (ASL) (from UniProt P04424 1-464) (enzyme)”, the binding result in assay [2] and in assay [3] was “binds” in each case.

B1: argininosuccinate synthase (ASS1) (enzyme, UniProt P00966 1-412)
chain: MSSKGSVVLAYSGGLDTSCILVWLKEQGYDVIAYLANIGQKEDFEEARKKALKLGAKKVFIEDVSREFVEEFIWPAIQSSALYEDRYLLGTSLARPCIARKQVEIAQREGAKYVSHGATGKGNDQVRFELSCYSLAPQIKVIAPWRMPEFYNRFKGRNDLMEYAKQHGIPIPVTPKNPWSMDENLMHISYEAGILENPKNQAPPGLYTKTQDPAKAPNTPDILEIEFKKGVPVKVTNVKDGTTHQTSLELFMYLNEVAGKHGVGRIDIVENRFIGMKSRGIYETPAGTILYHAHLDIEAFTMDREVRKIKQGLGLKFAELVYTGFWHSPECEFVRHCIAKSQERVEGKVQVSVLKGQVYILGRESPLSLYNEELVSMNVQGDYEPTDATGFININSLRLKEYHRLQSKVTAK
In the case of B1, the binding result in assay [4], in assay [5] and in assay [6] was “binds” in each case.
